# pIC50: −log10 of the molar value.
# System: A549
# Assay: Cytotoxicity against human A549 cells by MTT colorimetric method
# Format: functional, cell-based
compound,measurement,value
COc1cccc2c1C(=O)c1c(O)c3c(c(O)c1C2=O)C[C@@](O)(C(=O)CO)C[C@@H]3O[C@H]1C[C@H](N)[C@H](O)[C@H](C)O1 [DOXORUBICIN],pIC50,5.57

# — ChEMBL document CHEMBL2150860, “Herbarone, a rearranged heptaketide derivative from the sea hare associated fungus Torula herbarum” (J Nat Prod, 2012)
